Weaker means in comparison with the reference protein, sequence or condition of that experiment. For some assays here: Construct, isoform or probe ends are uncertain for at least one entry.
How the values were obtained:
[1] = biological target: NKX3.1 homeodomain (NKX3.1HD) (Homo sapiens) (UniProt Q99801); test: EMSA; details: human protein stated to behave identically to murine, purified recombinant protein, protein details: N-terminal 6xHis (pQE-9, E. coli), label: 32P
[2] = biological target: NKX3.1 homeodomain (NKX3.1HD) (Mus musculus) (UniProt P97436); test: EMSA; details: purified recombinant protein, protein details: N-terminal 6xHis (pQE-9, E. coli), label: 32P

CTCTAATGGCTTTTTTCTC (double strand) [site BS2 (substituted 3' of TAAT core)]
binding result ([1]; TAAT-core site not itemised): binds more weakly
binding result ([2]; contains TAAT core, text reports TAAT-core sites bound with lower affinity, not itemised): binds more weakly

ACACTAATTGGAGGC (double strand) [site 6 (Msx1 consensus, TAAT core)]
binding result [1]: binds more weakly
binding result ([2]; TAAT core, lower apparent affinity than CAAG site): binds more weakly

CACTGCCCAGTCAAGTGTTCTTGA (double strand) [C site (NKX2.1 consensus, CAAG core)]
binding result ([2]; preferential binding (CAAG core), 50 mM NaCl, 7.5 mM MgCl2, room temperature, poly-dIdC): binds

— US20030022275
